# Data: the supplement of paper PMC11659162
# The list shows a part of the results. This is a noisy data set.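 The cells are a human neuroglioma line carrying a green fluorescent autophagy reporter.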
# Test system: H4 GFP-LC3
# Assay: cell viability (scaled to control) (fraction of control); higher = more viable cells
# Details: 5 µM; 24 h
structure (smiles),measurement,value
Clc1ccc(C2CC3CCC2N3)cn1 (racemic),cell viability,1.3
